Assay results reported in PubChem BioAssay AID504444 (National Center for Advancing Translational Sciences (NCATS), 2011).
The whole screen tested about 360,000 compounds, of which about 7,500 (2.1%) were called active. Inconclusive means that the source gave no clear call. Such entries were picked first, then a sample of the others. Calls come from the whole dose curve; as a rule, active = well fitted inhibition curve with a large enough effect; inconclusive = small, poorly fitted or top-dose-only effect, or effect the other way; inactive = flat fitted curve, though single readings scatter. Potencies beside an inconclusive call are fits to weak or partial responses and may not hold up.
% is set by controls: 0 for no effect and ±100 for the full control effect; potency is the fitted concentration of half-maximal effect.

Experiment: Nrf2 qHTS screen for inhibitors; note: nearly all actives have a fitted effect of over 60% in size
Details: A549 ARE-Fluc reporter, luciferase luminescence, 18-24 h; activity change, negative = inhibition: at 46 µM (top of the series)
Summary of the method: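 Two sequential reads on A549 ARE_Fluc cells exposed to compound for 18-24 h: a CellTiter-Fluor fluorescence read for viability, then a luciferase luminescence read for Nrf2/ARE activity.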
With `FC(F)(F)c1ccc(C2NCCc3sccc32)cc1` (stereo not drawn) the Potency was inconclusive: 29.1 µM [activator, single point]. For `CCN(CC)S(=O)(=O)c1cc(NC(=O)C(C)Nc2ccccc2N2CCOCC2)ccc1C` (stereo not drawn), the Potency was inconclusive: 16.4 µM [falling, partial curve]. In the case of `Fc1ccc(-c2csc3[n+]2CCS3)cc1`, the Potency was active: 16.4 µM. For `Cc1nnc(SCC(=O)NC(C)(C)C)n1CCc1ccccc1`, the Potency was inconclusive: 11.6 µM [activator, partial curve, poor fit]. For `CCc1ccc(Oc2nc3c(C)cccn3c(=O)c2/C=C(\C#N)c2nc3ccccc3[nH]2)cc1`, the “activity change, negative = inhibition” value was inactive: 9.37%. In the case of `O=C(c1ccc2c(c1)OCO2)C1CCCN(Cc2ccc(OC(F)F)cc2)C1` (stereo not drawn), the Potency was inconclusive: 29.1 µM [falling, single point]. With `NS(=O)(=O)c1ccc(NC(=O)COC(=O)C2(c3ccc(F)cc3)CCCC2)cc1` the Potency was inconclusive: 25.9 µM [falling, partial curve, poor fit]. In the case of `OCCN1CCN(c2nc(-c3ccccc3)nc3c2oc2ccccc23)CC1`, the Potency was inconclusive: 29.1 µM [falling, single point]. For `COC(=O)C1=C(C)N(Cc2ccco2)C(=O)N[C@@H]1c1ccc(Br)cc1`, the Potency was inconclusive: 0.13 µM [activator, full curve, poor fit]. For `Cc1ccc(-n2nc(C)c3c(C)cc(=O)n(CC(=O)Nc4ccc(Br)cc4F)c32)cc1`, the Potency was inconclusive: 29.1 µM [activator, single point]. For `FC(F)(F)c1cccc(N2CCN(c3ccc4nnc(-c5ccccc5)n4n3)CC2)c1`, the Potency was active: 16.4 µM. With `COc1ccc(-n2c(C)cc(/C=N/Nc3nnc(C)n3N)c2C)cc1` the “activity change, negative = inhibition” value was inactive: -4.73%. In the case of `CC1CCCN(c2nc(NCc3ccco3)nc(N)c2[N+](=O)[O-])C1` (stereo not drawn), the Potency was active: 18.4 µM. In the case of `CC1Cc2cc(S(=O)(=O)N3CCC(C(=O)N4CCN(c5ccccc5F)CC4)CC3)ccc2N1C(=O)C1CC1` (stereo not drawn), the Potency was inconclusive: 29.1 µM [falling, single point]. With `Cc1cc(C)c(OCCCCCn2ccnc2)c(C)c1` the Potency was inconclusive: 32.6 µM [falling, single point]. In the case of `O=C(NCCCN1CCCC1)c1cc2c(Cl)nc3ccccc3c2s1`, the Potency was inconclusive: 20.6 µM [activator, single point]. For `C[C@H]1CN([C@@H](C)CO)C(=O)Cc2cc(NC(=O)C3CC3)ccc2O[C@H]1CN(C)Cc1ccc(Oc2ccccc2)cc1`, the Potency was inconclusive: 16.4 µM [falling, single point]. For `CCc1ccccc1NC(=O)CSC1=C(C#N)C(c2ccc3c(c2)OCO3)C2=C(CCCC2=O)N1` (stereo not drawn), the Potency was inconclusive: 29.1 µM [falling, single point]. For `O=C(c1ccccc1)N1CCN(c2ncnc3sc4c(c23)CCC4)CC1`, the Potency was active: 16.4 µM. In the case of `c1ccc(Cn2nc(-c3ccccc3)nc2-c2ccccc2)cc1`, the Potency was inconclusive: 23.1 µM [activator, single point]. For `CCN(CC)C(=O)c1sc2nc(N3CCOCC3)c3c(c2c1N)CCCC3`, the Potency was inconclusive: 9.2 µM [falling, partial curve, poor fit]. In the case of `CC(=O)Nc1cccc(OCC(=O)/C=C2\N(C)c3ccccc3C2(C)C)c1`, the Potency was inconclusive: 23.1 µM [falling, single point]. For `CC1CCN(S(=O)(=O)c2ccc(NC(=O)c3ccccc3F)cc2)CC1`, the Potency was inconclusive: 29.1 µM [falling, single point]. In the case of `CCn1ncc(C(=O)Nc2cc(C)on2)c1C`, the Potency was inconclusive: 18.4 µM [activator, single point]. With `CCN(CC)C(=O)Oc1ccc2oc(=O)cc(-c3cc4cccc(OC)c4o3)c2c1` the Potency was inconclusive: 23.1 µM [falling, single point]. For `CCc1ccc(NC(=O)[C@H](C)NC(=O)C2CCN(C(=O)[C@@H](N)Cc3ccccc3)CC2)cc1`, the Potency was inconclusive: 8.2 µM [activator, partial curve, poor fit]. In the case of `CN(CCC1CCOCC1)Cc1cn[nH]c1-c1ccc(-c2ccccc2)cc1`, the Potency was inconclusive: 29.1 µM [activator, single point]. With `CCOc1ccccc1Nc1nc(-c2cccc(Cl)c2)c2c(n1)-c1ccccc1OC2` the Potency was inconclusive: 2.59 µM [falling, partial curve, poor fit]. With `N#C/C(=C/c1ccc(O)c(O)c1)C(=O)NCc1ccc(Cl)cc1` the “activity change, negative = inhibition” value was inactive: 4.89%. In the case of `O=C1N=c2ccccc2=C1c1c(O)n(-c2cccc(F)c2)[nH]c1=O`, the Potency was inconclusive: 18.4 µM [activator, partial curve]. With `CC(C)C(=O)c1cn(CC(=O)NCc2ccco2)c2ccccc12` the Potency was inconclusive: 14.6 µM [activator, partial curve]. In the case of `O=S(=O)(c1ccccc1F)N1CCN(c2nc(-c3cccnc3)nc3ccccc23)CC1`, the Potency was inconclusive: 29.1 µM [falling, partial curve, poor fit]. In the case of `COc1ccc(-c2noc(-c3ccc(NCc4ccco4)c([N+](=O)[O-])c3)n2)cc1`, the “activity change, negative = inhibition” value was inactive: 28.9%. With `CCOC(=O)c1cccc(NC(=O)CCc2c(C)nc3cc(-c4ccc(Cl)cc4)nn3c2C)c1` the Potency was inconclusive: 0.146 µM [falling, full curve]. With `COc1ccccc1C(c1nnnn1C(C)(C)C)N1CCCCCC1` (stereo not drawn) the Potency was inconclusive: 18.4 µM [activator, partial curve, poor fit]. In the case of `CCc1nnc(SCC(=O)N(C)c2ccccc2)c2cc3sccc3n12`, the Potency was inconclusive: 29.1 µM [falling, single point]. In the case of `Cc1[nH]c2ccc(F)cc2c(=O)c1SC(F)(F)C(F)F`, the Potency was inconclusive: 29.1 µM [falling, single point]. For `Cc1csc(NC(=O)C2CCCCC2)n1`, the Potency was inconclusive: 20.6 µM [activator, single point]. In the case of `CCCc1c(C(=O)N/N=C/c2ccc(OC)c(OCc3ccccc3)c2)nnn1-c1nonc1N`, the Potency was inconclusive: 29.1 µM [falling, single point]. For `O=C(c1cc(C(=O)N2CCOCC2)c2nc3ccccc3n2c1)c1cc(Cl)cc(Cl)c1O`, the Potency was inconclusive: 0.184 µM [falling, full curve, poor fit]. With `COc1ccc(C(=O)Nc2ccc(Cl)cc2C(=O)NCc2ccco2)cc1OC` the Potency was active: 20.6 µM. For `CN1CCN(S(=O)(=O)c2cccc(C(=O)N(Cc3nnc(-c4ccc(Cl)cc4)o3)C3CC3)c2)CC1`, the Potency was inconclusive: 32.6 µM [falling, single point]. With `Cc1cc(C)c(C#N)c(SCC(=O)OC2CCCCC2)n1` the Potency was inconclusive: 29.1 µM [activator, single point]. In the case of `COc1ccc(N/C=C\C(=O)c2ccc3c(c2)OCO3)cc1`, the Potency was inconclusive: 4.61 µM [activator, full curve]. With `Nc1ccc(Cn2ccc3c4c(N)nc(N)nc4ccc32)cc1` the Potency was active: 0.82 µM. With `Cc1ccc(C)c(N2N=C(C(=O)Nc3ccccc3N3CCCC3)CCC2=O)c1` the Potency was inconclusive: 23.1 µM [falling, single point]. With `CCn1nc(C)c(C2C(C#N)=C(N)OC3=C2C(=O)CC(C)(C)C3)c1C` (stereo not drawn) the Potency was inconclusive: 25.9 µM [activator, single point]. For `CS(=O)(=O)c1ccc(NC(=O)c2ccc3c(c2)S(=O)(=O)N=C2CCCCCN23)cc1`, the Potency was inconclusive: 7.31 µM [activator, partial curve, poor fit]. In the case of `Cc1ccc([C@H]2Nc3ccc(S(=O)(=O)Nc4cccc(Cl)c4C)cc3[C@H]3C=CC[C@H]32)cc1`, the Potency was inconclusive: 29.1 µM [falling, single point]. For `Cc1ccc(SC[C@H](Cc2ccccc2)N2CCN(CC(C)C)CCC2=O)cc1`, the Potency was inconclusive: 14.6 µM [activator, partial curve, poor fit]. With `O=C(CCc1ccccc1)Nc1c(F)cccc1F` the Potency was inconclusive: 8.2 µM [activator, partial curve, poor fit]. In the case of `CC(C)N(Cc1ccccc1)C(=O)COC(=O)/C=C/c1cnc2ccccc2n1`, the Potency was inconclusive: 14.6 µM [falling, partial curve]. With `CCOc1ccc2nc(N3CCC(C(=O)N4CCN(c5ccccn5)CC4)CC3)sc2c1` the Potency was active: 16.4 µM. In the case of `Cc1ccc(OCCN2CCN(C(=O)CCC(=O)Nc3nnc(C)s3)CC2)cc1`, the “activity change, negative = inhibition” value was inactive: -0.779%. For `CC(C)OC(=O)CSc1nnnn1-c1ccc2c(c1)OCCO2`, the Potency was inconclusive: 14.6 µM [activator, single point]. In the case of `O=C(NC(=S)NCc1cccnc1)c1cccc2ccccc12`, the Potency was inconclusive: 16.4 µM [falling, single point]. For `CNC[C@@H](CC1CCCCC1)NC[C@H](CC(C)C)NCCc1cccc(C(F)(F)F)c1`, the Potency was inconclusive: 20.6 µM [falling, single point]. In the case of `Cc1ccc(C)c(NC(=O)c2ccccn2)c1`, the Potency was inconclusive: 29.1 µM [activator, single point]. With `Cc1ccc(NC(=O)Nc2cccc([N+](=O)[O-])c2)nc1` the Potency was inconclusive: 0.517 µM [activator, full curve]. With `Cc1cc(C)c(Cn2c(CCNC(=O)c3ccco3)nc3ccccc32)c(C)c1` the “activity change, negative = inhibition” value was inactive: -20.1%. In the case of `CCOC(=O)Cc1cc(=O)[nH]c(Nc2nc3ccccc3o2)n1`, the Potency was inconclusive: 25.9 µM [activator, single point]. For `C[C@@H](NC(=O)c1nc[nH]c1C(=O)N[C@H](C)c1ccccc1)c1ccccc1`, the Potency was inconclusive: 29.1 µM [falling, single point]. In the case of `COc1ccccc1/C=C/C(=O)NC(=S)NCC1CCCO1` (stereo not drawn), the Potency was inconclusive: 11.6 µM [falling, partial curve, poor fit].
